The source of these data is the odorant receptor screen of Mainland et al. (2015).

Among the test systems are OR4F15 clone 1074; OR4F15 clone 1434; OR4F16 clone 1060; OR4F17 clone 1161; OR4F21 clone 1580; OR4F4 clone 1556; OR4F5 clone 1557; OR4F6 clone 1058; OR4F6 clone 1537; OR4K1 R89H clone 1269.
What all share (experiment): odorant receptor activation (CRE luciferase / Renilla) (fold of no-odor wells); higher = more activation
Holding throughout (settings): 100 µM

Values joined by “and” are separate entries in the source; they are usually repeats but may differ in a detail not shown here. Equal values may be shown once. This is one part of the list. Each value is one well over the wells without odorant, computed here; the data are noisy.

On to `O=C1CCCCCCCCCCCCCCO1` [pentadecalactone], for which the odorant receptor activation in the experiment on OR4F15 clone 1074 worked out at 1.06; with OR4F15 clone 1434 it was 1.25; in the experiment on OR4F16 clone 1060, 0.757; in the experiment with OR4F17 clone 1161, 0.745; in the experiment on OR4F21 clone 1580, 0.806; in the experiment with OR4F4 clone 1556, 0.721. The odorant receptor activation in the experiment on OR4F5 clone 1557 was 0.884; in the experiment on OR4F6 clone 1058, 1.03; in the experiment with OR4F6 clone 1537 it was 0.868; in the experiment with OR4K1 R89H clone 1269 it was 0.81.

Take `CC12C=CCC1C1CCC3CC(=O)CCC3(C)C1CC2` (stereo not given) [androstenone]: the odorant receptor activation in the experiment on OR4F15 clone 1074 was found to be 1.56; in the experiment with OR4F15 clone 1434, 1.4; in the experiment with OR4F16 clone 1060, 2.1; in the experiment with OR4F17 clone 1161 it was 7.77; in the experiment with OR4F6 clone 1058 it was 1.8; in the experiment on OR4F6 clone 1537, 1.07. In the experiment with OR4K1 R89H clone 1269, this compound registered an odorant receptor activation of 1.03.

Turning to `C=C(C)C1CC=C(C)C(=O)C1` (stereo not given) [r-carvone], the odorant receptor activation in the experiment on OR4F15 clone 1074 worked out at 1.17; with OR4F15 clone 1434 it was 1; with OR4F16 clone 1060, 0.802; with OR4F17 clone 1161, 0.968; with OR4F21 clone 1580, 1.02; with OR4F4 clone 1556, 0.751. Moreover, the odorant receptor activation with OR4F5 clone 1557 is 0.915; with OR4F6 clone 1058, 1.12; in the experiment with OR4F6 clone 1537, 0.882; in the experiment with OR4K1 R89H clone 1269 it was 0.691.

Turning to `CCCCCCOC(=O)CCC` [hexyl butyrate], the odorant receptor activation with OR4F15 clone 1074 was found to be 0.895; in the experiment with OR4F15 clone 1434, 0.714; in the experiment with OR4F16 clone 1060 it was 1.09; in the experiment on OR4F17 clone 1161, 1.35; in the experiment on OR4F21 clone 1580, 0.97; in the experiment on OR4F4 clone 1556 it was 0.679. The odorant receptor activation is 0.901 with OR4F5 clone 1557; 0.806 in the experiment on OR4F6 clone 1058; 0.764 and 0.93 in the experiment with OR4F6 clone 1537; 1.13 and 0.578 with OR4K1 R89H clone 1269.

Consider `CC(C)C=O` [isobutyraldehyde], for which the odorant receptor activation in the experiment on OR4F15 clone 1074 is 1.34; with OR4F15 clone 1434, 0.99; in the experiment on OR4F16 clone 1060 it was 0.635; in the experiment with OR4F17 clone 1161, 1.08; in the experiment with OR4F21 clone 1580, 0.629; in the experiment with OR4F4 clone 1556, 1.03. Further, the odorant receptor activation with OR4F5 clone 1557 is 1.39; with OR4F6 clone 1058 it was 0.964; in the experiment on OR4F6 clone 1537, 0.903 and 0.957; with OR4K1 R89H clone 1269, 0.938 and 0.676.

Turning to `CC/C=C\CCO` [cis-3-hexen-1-ol], the odorant receptor activation was 0.916 in the experiment on OR4F15 clone 1074; 0.194 with OR4F15 clone 1434; 0.905 in the experiment on OR4F16 clone 1060; 1.01 with OR4F17 clone 1161; 1.12 in the experiment on OR4F21 clone 1580; 1.17 with OR4F4 clone 1556. Moreover, the odorant receptor activation in the experiment with OR4F5 clone 1557 worked out at 1.14; with OR4F6 clone 1058, 1.07; in the experiment with OR4F6 clone 1537 it was 1.03; with OR4K1 R89H clone 1269, 1.43.

Take `C=CCc1ccc(O)c(OC)c1` [eugenol]: the odorant receptor activation was 0.865 and 1.26 in the experiment on OR4F15 clone 1074; 1.3 and 1.54 in the experiment on OR4F15 clone 1434; 1.8 and 1.05 in the experiment on OR4F16 clone 1060; 3.21 and 1.16 in the experiment with OR4F17 clone 1161; 1.05 in the experiment with OR4F21 clone 1580; 1.23 in the experiment on OR4F4 clone 1556. The odorant receptor activation is 1.56 in the experiment on OR4F5 clone 1557; 1.19 and 1.4 in the experiment on OR4F6 clone 1058; 1.39 and 1.34 and 1.29 in the experiment on OR4F6 clone 1537; 1.29 and 1.36 in the experiment on OR4K1 R89H clone 1269.

`COc1ccccc1O` [guaiacol]: the odorant receptor activation in the experiment on OR4F15 clone 1074 is 2.34; with OR4F15 clone 1434 it was 0.827; in the experiment with OR4F16 clone 1060, 0.945; in the experiment with OR4F17 clone 1161, 1.02; with OR4F21 clone 1580, 0.876; in the experiment with OR4F4 clone 1556 it was 0.655. Further, the odorant receptor activation is 0.8 in the experiment on OR4F5 clone 1557; 3.92 with OR4F6 clone 1058; 0.945 and 0.962 in the experiment on OR4F6 clone 1537; 0.96 and 0.868 in the experiment on OR4K1 R89H clone 1269.

Turning to `CC1COCc2cc3c(cc21)C(C)(C)C(C)C3(C)C` (stereo not given) [galaxolide], the odorant receptor activation with OR4F15 clone 1074 was 3.02; with OR4F15 clone 1434, 2.56; with OR4F16 clone 1060 it was 3.25; with OR4F17 clone 1161, 3.28; with OR4F4 clone 1556, 1.47 and 3.89; with OR4F5 clone 1557, 1.82 and 2.4. In addition, the odorant receptor activation is 2.62 in the experiment on OR4F6 clone 1058; 1.55 and 4.56 in the experiment with OR4K1 R89H clone 1269.

`O=CCc1ccccc1` [phenyl acetaldehyde]: the odorant receptor activation in the experiment with OR4F15 clone 1074 is 1.3; in the experiment on OR4F15 clone 1434 it was 1.42; in the experiment on OR4F16 clone 1060 it was 1.21; in the experiment on OR4F17 clone 1161, 1.14; in the experiment with OR4F21 clone 1580, 2.28; with OR4F4 clone 1556 it was 1.82. Besides, the odorant receptor activation in the experiment with OR4F5 clone 1557 was found to be 1.77; with OR4F6 clone 1058 it was 1.17; with OR4F6 clone 1537, 1.2; in the experiment on OR4K1 R89H clone 1269 it was 1.12.

For the compound `CCCCCCCCCC=O` [decyl aldehyde], the odorant receptor activation in the experiment with OR4F15 clone 1074 is 0.793; in the experiment on OR4F15 clone 1434 it was 1.08; in the experiment with OR4F16 clone 1060, 1.07; in the experiment on OR4F17 clone 1161, 1.25; in the experiment on OR4F21 clone 1580, 0.748; in the experiment with OR4F4 clone 1556, 0.929. In addition, the odorant receptor activation came out at 1.12 in the experiment with OR4F5 clone 1557, 1.12 in the experiment on OR4F6 clone 1058, 1.47 in the experiment on OR4F6 clone 1537 and 1.27 in the experiment with OR4K1 R89H clone 1269.

Consider `C=CCc1ccc(OC)c(OC)c1` [eugenol methyl ether], for which the odorant receptor activation came to 1.21 in the experiment on OR4F15 clone 1074; 1.66 in the experiment on OR4F15 clone 1434; 1.11 with OR4F16 clone 1060; 1.47 with OR4F17 clone 1161; 0.744 in the experiment on OR4F21 clone 1580; 0.519 in the experiment with OR4F4 clone 1556. In addition, the odorant receptor activation was determined as 0.819 in the experiment on OR4F5 clone 1557, 1.67 in the experiment with OR4F6 clone 1058, 1.54 in the experiment on OR4F6 clone 1537 and 1.36 with OR4K1 R89H clone 1269.

For the compound `C=C(C)C1CCC2=CC(=O)CC(C)C2(C)C1` (stereo not given) [amyl laurate], the odorant receptor activation in the experiment on OR4F21 clone 1580 was found to be 1.16; in the experiment with OR4F4 clone 1556, 1.84; in the experiment with OR4F5 clone 1557, 1.01.

On to `C=C(C)C1CC=CCC1` (stereo not given) [r-limonene], for which the odorant receptor activation with OR4F15 clone 1074 is 1.49 and 0.675; in the experiment with OR4F15 clone 1434, 1.11 and 0.984; in the experiment with OR4F16 clone 1060 it was 1.26 and 1.08; with OR4F17 clone 1161, 1.22 and 0.546; in the experiment on OR4F21 clone 1580 it was 1.35; in the experiment on OR4F4 clone 1556, 0.971. The odorant receptor activation in the experiment on OR4F5 clone 1557 was 1.1; in the experiment on OR4F6 clone 1058, 1.18 and 1.21; in the experiment with OR4F6 clone 1537 it was 1.28 and 0.682 and 0.814; in the experiment on OR4K1 R89H clone 1269 it was 0.651 and 0.564.

For `CC12C=CCC1C1CCC3=CC(=O)CCC3(C)C1CC2` (stereo not given) [androstadienone], the odorant receptor activation in the experiment on OR4F15 clone 1074 was 1.58; in the experiment on OR4F15 clone 1434, 0.911; in the experiment with OR4F16 clone 1060, 0.766; in the experiment on OR4F17 clone 1161, 1; with OR4F6 clone 1058 it was 1.55; with OR4F6 clone 1537, 1.07 and 1.13. Moreover, the odorant receptor activation with OR4K1 R89H clone 1269 was 1.02 and 0.733.
